The text below walks through data of paper PMC6155157.

Chains of the proteins cited; added tags and fusions are not shown.
UniProt Q96EB6: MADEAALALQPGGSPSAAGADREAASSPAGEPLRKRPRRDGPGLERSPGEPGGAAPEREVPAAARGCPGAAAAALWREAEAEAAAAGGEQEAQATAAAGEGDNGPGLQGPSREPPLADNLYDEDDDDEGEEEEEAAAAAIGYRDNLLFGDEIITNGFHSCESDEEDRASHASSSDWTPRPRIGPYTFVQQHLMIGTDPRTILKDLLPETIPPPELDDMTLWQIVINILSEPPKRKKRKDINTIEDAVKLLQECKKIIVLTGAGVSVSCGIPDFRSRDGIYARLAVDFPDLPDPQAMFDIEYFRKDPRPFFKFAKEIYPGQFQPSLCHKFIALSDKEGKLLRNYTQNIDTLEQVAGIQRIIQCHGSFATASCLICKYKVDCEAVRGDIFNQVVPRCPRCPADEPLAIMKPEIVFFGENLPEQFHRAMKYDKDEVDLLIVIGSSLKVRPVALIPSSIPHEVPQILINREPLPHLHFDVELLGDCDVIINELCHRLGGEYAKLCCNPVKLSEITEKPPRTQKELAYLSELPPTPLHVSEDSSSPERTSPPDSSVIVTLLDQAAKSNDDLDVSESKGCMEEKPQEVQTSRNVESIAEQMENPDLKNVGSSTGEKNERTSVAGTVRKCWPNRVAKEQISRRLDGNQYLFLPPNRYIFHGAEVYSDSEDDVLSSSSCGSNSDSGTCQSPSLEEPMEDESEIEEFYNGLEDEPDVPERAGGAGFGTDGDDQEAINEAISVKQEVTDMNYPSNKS
UniProt P05412: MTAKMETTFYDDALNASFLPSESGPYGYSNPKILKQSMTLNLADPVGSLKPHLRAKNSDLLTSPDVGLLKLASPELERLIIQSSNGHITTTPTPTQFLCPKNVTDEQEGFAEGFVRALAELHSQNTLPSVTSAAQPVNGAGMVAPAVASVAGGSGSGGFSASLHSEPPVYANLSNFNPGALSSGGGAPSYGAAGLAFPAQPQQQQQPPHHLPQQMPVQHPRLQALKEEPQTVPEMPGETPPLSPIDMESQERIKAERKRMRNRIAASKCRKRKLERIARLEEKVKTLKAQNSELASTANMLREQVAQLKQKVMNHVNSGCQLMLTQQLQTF

The experiment deals with Sirtuin 1 (SIRT1) (human (endogenous in AGS)) (UniProt Q96EB6). The experiment is described as follows: co-IP; AGS cells lysed with NP40 lysis buffer; endogenous proteins precipitated with anti-c-JUN or anti-SIRT1 antibody (IgG as control) and protein G PLUS-Agarose beads; western blot for the other protein. (A western blot detects proteins with antibodies after separation by electrophoresis.)

Results are given in words; binding and its absence hold for the method and conditions named. Binding seen in cells or lysates may run through a third protein. Some results given as binding are weak or reduced against the parent protein; the word gives no strength.

“transcription factor c-JUN (from UniProt P05412 1-331)”: the binding result is given as “binds”.
